Consider 19 molecules from PubChem BioAssay AID256 (DTP/NCI, 2004).

The assay has as its system CD2F1 mice, L1210 leukemia ip, survival T/C. Put plainly: NCI In Vivo Anticancer Drug Screen. Data for tumor model L1210 Leukemia (intraperitoneal) in CD2F1 (CDF1) mice. As to conditions: higher T/C = longer survival. The procedure, abridged:
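Tumor-bearing mice (transplanted tumor) were split into treated and vehicle control groups, and the measured endpoint of each treated group was divided by that of its vehicle controls.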

Setting [1] is: T/C endpoint: mean survival time, dose: 400.0 mg/kg/injection, schedule: Q01DX009 (ip), vehicle: saline.
Where [2] appears, read: T/C endpoint: mean survival time, dose: 400.0 mg/kg/injection, schedule: Q04DX002 (ip), vehicle: saline with Tween-80.
Where [3] appears, read: T/C endpoint: mean survival time, dose: 400.0 mg/kg/injection, schedule: Q01DX009 (ip), vehicle: saline with Tween-80.
Where [4] appears, read: T/C endpoint: mean survival time, dose: 200.0 mg/kg/injection, schedule: Q04DX002 (ip), vehicle: saline with Tween-80.
Where [5] appears, read: T/C endpoint: mean survival time, dose: 100.0 mg/kg/injection, schedule: Q04DX003 (ip), vehicle: saline with Tween-80.
[6] abbreviates: T/C endpoint: mean survival time, dose: 200.0 mg/kg/injection, schedule: Q04DX003 (ip), vehicle: saline with Tween-80.
Where [7] appears, read: T/C endpoint: mean survival time, dose: 400.0 mg/kg/injection, schedule: Q04DX003 (ip), vehicle: saline with Tween-80.

Each structure is given as a SMILES string. The list does not hold the whole screen: it is rich in T/C values a quarter to a half above the control, in often repeated tests (any T/C) and in doses without a T/C. Other doses and runs of a compound stand elsewhere. T/C is the treated group as % of the vehicle group. Some entries give survivors of the animals treated and no T/C: the source holds a T/C of zero for them, seemingly a mark for toxic or unscored doses. Some survivor counts are full or nearly so, which does not show that the dose was tolerated: the source hardly ever lists a survival T/C far under the control, and the zero likely stands for such cases as well. Counts of survivors are from the toxicity check (mostly the fifth day) where no day follows; animals may have died later. Schedule codes are those of the source, taken here to give the interval after Q, in days (D) or hours (H), and the number of doses after X. Some structures stand for samples that the source files as different forms (salt, stereo form or complex); doses refer to the form tested. Where survival is the endpoint, this PubChem deposit counts one and a half times the control or more as active, and values a quarter to a half above the control carry no call in these data; other NCI protocols may use other cut-offs. Some T/C values carry the count of animals alive at the toxicity check (mostly the fifth day); where none is given, no animal had died by that day. Some entries hold several experiments; their values stand side by side, smallest first. Additions like (4×) say how often a value occurs here. Some schedule codes hold Z or #, which are not explained here.

In the case of `Nc1n[nH]c(N)n1`, the T/C is 127 % of control [9 of 10 alive] (T/C endpoint: mean survival time, dose: 100.0 mg/kg/injection, schedule: Q## X068 (ip), vehicle: water); 109, 112, 118, 121 % of control (T/C endpoint: mean survival time, dose: 125.0 mg/kg/injection, schedule: Q01DX009 (ip), vehicle: saline); 125 % of control (T/C endpoint: mean survival time, dose: 200.0 mg/kg/injection, schedule: Q01DX007 (ip), vehicle: saline); 103, 117, 120, 124, 125, 128 % of control (T/C endpoint: mean survival time, dose: 200.0 mg/kg/injection, schedule: Q01DX009 (ip), vehicle: saline); 126 and 138 % of control (2×) (T/C endpoint: mean survival time, dose: 200.0 mg/kg/injection, schedule: Q03HX024 (ip), vehicle: saline); 126 % of control (T/C endpoint: mean survival time, dose: 200.0 mg/kg/injection, schedule: Q#A X018 (ip), vehicle: water). Besides, the T/C runs as follows: (T/C endpoint: mean survival time, dose: 200.0 mg/kg/injection, schedule: Q#A X034 (ip), vehicle: water) 146 % of control; (T/C endpoint: mean survival time, dose: 250.0 mg/kg/injection, schedule: Q01DX009 (ip), vehicle: saline) 123, 128, 145, 146 % of control; (T/C endpoint: mean survival time, dose: 400.0 mg/kg/injection, schedule: Q01DX007 (ip), vehicle: saline) 125 % of control; under setting [1], 103, 130 (2×), 136, 141, 157 % of control; (T/C endpoint: mean survival time, dose: 400.0 mg/kg/injection, schedule: Q01DX017 (ip), vehicle: water) 127 % of control; (T/C endpoint: mean survival time, dose: 500.0 mg/kg/injection, schedule: Q01DX009 (ip), vehicle: saline) 137, 138, 143, 146, 160 % of control. Also, the T/C runs as follows: (T/C endpoint: mean survival time, dose: 800.0 mg/kg/injection, schedule: Q01DX009 (ip), vehicle: saline) 102, 148, 151, 155 % of control; (T/C endpoint: mean survival time, dose: 800.0 mg/kg/injection, schedule: Q03HX024 (ip), vehicle: saline) 147 % of control; (T/C endpoint: mean survival time, dose: 1000.0 mg/kg/injection, schedule: Q01DX009 (ip), vehicle: saline) 138, 140, 150 [5 of 6 alive], 155 % of control; (T/C endpoint: mean survival time, dose: 1600.0 mg/kg/injection, schedule: Q01DX009 (ip), vehicle: saline) 105, 148, 151, 162, 186 % of control; (T/C endpoint: mean survival time, dose: 1600.0 mg/kg/injection, schedule: Q#A X010 (ip), vehicle: water) 125 % of control; (T/C endpoint: mean survival time, dose: 1600.0 mg/kg/injection, schedule: Q#A X018 (ip), vehicle: water) 133 % of control. Also, for the setting “T/C endpoint: mean survival time, dose: 2048.0 mg/kg/injection, schedule: Q12HX018 (ip), vehicle: saline”, the T/C is 129 % of control.
With `CC(C)NCC(O)c1ccc(O)c(O)c1` (configuration not stated), the T/C under setting [1] was 125 % of control. For the same molecule, under “T/C endpoint: mean survival time, dose: 512.0 mg/kg/injection, schedule: Q01DX001 (ip), vehicle: other”, the survivor count is reported as 2 of 6.
As for `CCOC(=O)Cc1cnc(SC)[nH]c1=O`, where the note is “T/C endpoint: mean survival time, dose: 400.0 mg/kg/injection, schedule: Q04DX003 (ip), vehicle: Klucel (hydroxypropylcellulose) (HPC)”, the survivor count is 6 of 6.
For the molecule `NC1=NCCCN1`, the survivor count (T/C endpoint: mean survival time, dose: 25.0 mg/kg/injection, schedule: Q01DX009 (ip), vehicle: saline with Tween-80) is 5 of 6; the survivor count (T/C endpoint: mean survival time, dose: 50.0 mg/kg/injection, schedule: Q01DX009 (ip), vehicle: saline with Tween-80) is 2 of 6; the survivor count (T/C endpoint: mean survival time, dose: 100.0 mg/kg/injection, schedule: Q01DX009 (ip), vehicle: saline with Tween-80) was 0 of 6.
`C=C(CN(C)C)c1ccccn1`: the survivor count runs as follows: (T/C endpoint: mean survival time, dose: 150.0 mg/kg/injection, schedule: Q01DX001 (ip), vehicle: other) 1 of 6; (T/C endpoint: mean survival time, dose: 300.0 mg/kg/injection, schedule: Q01DX001 (ip), vehicle: other) 0 of 6.
On to `O=S(=O)(CCCl)c1ccc(Cl)cc1`, for which, under setting [2], the survivor count is 1 of 3.
Take `COC(=O)C(CSSCC(NC(=O)CNC(=O)c1ccccc1)C(=O)OC)NC(=O)CNC(=O)c1ccccc1` (configuration not stated): the survivor count under setting [3] is 4 of 6.
Consider `COc1cc(NC(=O)Nc2cccc(Cl)c2)c(OC)cc1Cl`, for which the survivor count under setting [4] is on record as 3 of 3.
Take `Cc1cnc([Se])[nH]c1=O`: the survivor count by setting is: (T/C endpoint: mean survival time, dose: 100.0 mg/kg/injection, schedule: Q01DX005 (ip), vehicle: water) 1 of 3; (T/C endpoint: mean survival time, dose: 200.0 mg/kg/injection, schedule: Q01DX005 (ip), vehicle: water) 0 of 3; (T/C endpoint: mean survival time, dose: 400.0 mg/kg/injection, schedule: Q01DX005 (ip), vehicle: water) 0 of 3.
In the case of `OCC1OC(n2cnc3c(Cl)ncnc32)C(O)C1O` (configuration not stated), the survivor count (T/C endpoint: median survival time, dose: 500.0 mg/kg/injection, schedule: Q01DX009 (ip), vehicle: saline) is 6 of 6.
Regarding `O=C(Nc1cccc(O)c1)C(Cl)=C(Cl)Cl`, the T/C (T/C endpoint: median survival time, dose: 3.12 mg/kg/injection, schedule: Q01DX005 (ip), vehicle: other) is 125 % of control. In addition, for the setting “T/C endpoint: median survival time, dose: 50.0 mg/kg/injection, schedule: Q01DX005 (ip), vehicle: other”, the survivor count is on record as 4 of 6.
Consider `N#CC1C2CCC(O2)C1C(=O)Oc1ccccc1` (configuration not stated), for which the survivor count by setting is: under setting [4], 1 of 3; under setting [2], 0 of 3.
Consider `CN(Cc1cnc2nc(N)nc(N)c2c1)c1ccc(C(=O)NC(CCC(=O)O)C(=O)O)cc1` (configuration not stated), for which the T/C (T/C endpoint: median survival time, dose: 2.0 mg/kg/injection, schedule: Q01DX005 (ip), vehicle: other) was 140 % of control.
Turning to `[Cl][Pt+2][Cl].[NH-]CC1CCC[N-]C1` (configuration not stated), the T/C is, setting by setting: (T/C endpoint: mean survival time, dose: 6.25 mg/kg/injection, schedule: Q04DX003 (ip), vehicle: saline with Tween-80) 127 % of control; (T/C endpoint: mean survival time, dose: 12.5 mg/kg/injection, schedule: Q04DX003 (ip), vehicle: saline with Tween-80) 133 % of control; (T/C endpoint: mean survival time, dose: 25.0 mg/kg/injection, schedule: Q04DX003 (ip), vehicle: saline with Tween-80) 127 % of control.
On to `COc1ccc(Cc2c[n+](C)cc3cc(N=O)c(OC)cc23)cc1O`, for which the survivor count (T/C endpoint: mean survival time, dose: 400.0 mg/kg/injection, schedule: Q01DX001 (ip), vehicle: saline) is 1 of 6.
Consider `CC(=O)c1ccc(N=NNc2ccc(C(C)=O)cc2)cc1`, for which, under setting [3], the survivor count is 3 of 6.
`N#CCC(C#N)C1C=CCC1` (configuration not stated): the survivor count is, setting by setting: (T/C endpoint: mean survival time, dose: 12.5 mg/kg/injection, schedule: Q04DX003 (ip), vehicle: saline) 2 of 6; (T/C endpoint: mean survival time, dose: 75.0 mg/kg/injection, schedule: Q01DX001 (ip), vehicle: saline) 0 of 6; under setting [5], 0 of 6; (T/C endpoint: mean survival time, dose: 150.0 mg/kg/injection, schedule: Q01DX001 (ip), vehicle: saline) 0 of 6; under setting [6], 0 of 6; (T/C endpoint: mean survival time, dose: 300.0 mg/kg/injection, schedule: Q01DX001 (ip), vehicle: saline) 0 of 6. For the same molecule, under setting [7], the survivor count is recorded as 0 of 6.
As for `O=C1N(Cl)C2C(N1Cl)N(Cl)C(=O)N2Cl` (configuration not stated), the survivor count under setting [5] is reported as 1 of 6, the survivor count under setting [6] is reported as 0 of 6 and the survivor count under setting [7] was 0 of 6.
As to `COc1cccc2c1C(=O)c1c(O)c3c(c(O)c1C2=O)C[C@@](O)(/C(C)=N/NC(=O)c1ccc(-c2ccccc2)cc1)C[C@@H]3OC1CC(N)C(O)C(C)O1` (some centres not stated), the T/C runs as follows: (T/C endpoint: mean survival time, dose: 0.5 mg/kg/injection, schedule: Q01DX009 (ip), vehicle: water) 139 % of control; (T/C endpoint: mean survival time, dose: 1.0 mg/kg/injection, schedule: Q01DX009 (ip), vehicle: water) 131 % of control [5 of 6 alive]; (T/C endpoint: mean survival time, dose: 2.0 mg/kg/injection, schedule: Q01DX009 (ip), vehicle: water) 125 % of control.
